# Reference: US10622572B2, “Organic thin-film transistor and method for manufacturing the same, material for organic thin-film transistor, composition for organic thin-film transistor, compound, and organic semiconductor film” (FUJIFILM Corporation, priority 2015, dated 2020)
# How the values were obtained:
# [1] = Carrier mobility, bottom gate-top contact-type element by coating process; conditions: 0.1% by mass anisole solution, −50 V source-drain, gate 20 V to −150 V
# [2] = Carrier mobility, bottom gate-bottom contact-type element (drop casting); conditions: drop casting of 0.1% by mass anisole solution, nitrogen atmosphere
# [3] = Carrier mobility, bottom gate-bottom contact-type element by ink jet method; conditions: 0.1% by mass tetralin solution
# [4] = Carrier mobility, bottom gate-bottom contact-type element by flexo printing method; conditions: 0.5% compound + 0.5% poly α-methylstyrene + 0.05% BYK323 in tetralin
# [5] = Carrier mobility, bottom gate-top contact-type element by deposition process; conditions: vacuum deposited film 40 nm
Compound,Carrier mobility [1],Carrier mobility [2],Carrier mobility [3],Carrier mobility [4],Carrier mobility [5]
"CCCCCCc1cc2c(ccc3c2ccc2c4ccc5sc(CCCCCC)cc5c4ccc32)s1 [Comparative compound 1, reference compound]",C (0.05 cm^2/Vs or more to less than 0.1 cm^2//Vs),D (<0.05 cm^2/Vs),,,
"CCCCCCc1cc2ccc3c4ccc5c(ccc6cc(CCCCCC)sc65)c4ccc3c2s1 [Comparative compound 2, reference compound]",C (0.05 cm^2/Vs or more to less than 0.1 cm^2//Vs),D (<0.05 cm^2/Vs),,,
"CCCCCCc1cc2cc3ccc4c5cc6sc(CCCCCC)cc6cc5ccc4c3cc2s1 [Comparative compound 3, reference compound]",D (<0.05 cm^2/Vs),D (<0.05 cm^2/Vs),,,
CC(C)[Si](C#Cc1cc2c(cc(C#C[Si](C(C)C)(C(C)C)C(C)C)c3c4ccsc4ccc23)c2ccc3sccc3c12)(C(C)C)C(C)C [Compound 1],A (≥0.5 cm^2/Vs),A (≥0.5 cm^2/Vs),A (≥0.5 cm^2/Vs),A (≥0.5 cm^2/Vs),A (≥0.5 cm^2/Vs)
CC(C)[Si](C#Cc1cc2c(cc(C#C[Si](C(C)C)(C(C)C)C(C)C)c3c2ccc2ccsc23)c2ccc3ccsc3c12)(C(C)C)C(C)C [Compound 2],A (≥0.5 cm^2/Vs),A (≥0.5 cm^2/Vs),A (≥0.5 cm^2/Vs),A (≥0.5 cm^2/Vs),A (≥0.5 cm^2/Vs)
CC(C)[Si](C#Cc1cc2c(cc(C#C[Si](C(C)C)(C(C)C)C(C)C)c3c4cc(F)sc4ccc23)c2ccc3sc(F)cc3c12)(C(C)C)C(C)C [Compound 3],A (≥0.5 cm^2/Vs),A (≥0.5 cm^2/Vs),A (≥0.5 cm^2/Vs),A (≥0.5 cm^2/Vs),A (≥0.5 cm^2/Vs)
CC(C)[Si](C#Cc1cc2c(cc(C#C[Si](C(C)C)(C(C)C)C(C)C)c3c2ccc2cc(F)sc23)c2ccc3cc(F)sc3c12)(C(C)C)C(C)C [Compound 4],A (≥0.5 cm^2/Vs),A (≥0.5 cm^2/Vs),A (≥0.5 cm^2/Vs),A (≥0.5 cm^2/Vs),A (≥0.5 cm^2/Vs)
